Measurements taken from PMC11614281.
Results are given in words; binding and its absence hold for the method and conditions named. Binding seen in cells or lysates may run through a third protein. Some binding calls cover weakened binding; strength is not graded here. For some assays here: Sequences can lack the tags named with a protein.

The chains behind the UniProt entries cited, without tags or fusion partners. Residues count along the entry.
UniProt Q10589, residues 1-161: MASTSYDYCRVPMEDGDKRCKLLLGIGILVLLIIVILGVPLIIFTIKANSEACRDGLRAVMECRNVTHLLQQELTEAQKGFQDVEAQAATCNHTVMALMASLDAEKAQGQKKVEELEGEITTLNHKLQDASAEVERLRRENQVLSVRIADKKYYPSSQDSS
UniProt P04543: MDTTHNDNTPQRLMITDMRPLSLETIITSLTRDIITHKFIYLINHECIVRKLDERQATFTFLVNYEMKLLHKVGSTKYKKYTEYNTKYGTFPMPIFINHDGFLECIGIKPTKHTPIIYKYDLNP
UniProt P12568, residues 26-574: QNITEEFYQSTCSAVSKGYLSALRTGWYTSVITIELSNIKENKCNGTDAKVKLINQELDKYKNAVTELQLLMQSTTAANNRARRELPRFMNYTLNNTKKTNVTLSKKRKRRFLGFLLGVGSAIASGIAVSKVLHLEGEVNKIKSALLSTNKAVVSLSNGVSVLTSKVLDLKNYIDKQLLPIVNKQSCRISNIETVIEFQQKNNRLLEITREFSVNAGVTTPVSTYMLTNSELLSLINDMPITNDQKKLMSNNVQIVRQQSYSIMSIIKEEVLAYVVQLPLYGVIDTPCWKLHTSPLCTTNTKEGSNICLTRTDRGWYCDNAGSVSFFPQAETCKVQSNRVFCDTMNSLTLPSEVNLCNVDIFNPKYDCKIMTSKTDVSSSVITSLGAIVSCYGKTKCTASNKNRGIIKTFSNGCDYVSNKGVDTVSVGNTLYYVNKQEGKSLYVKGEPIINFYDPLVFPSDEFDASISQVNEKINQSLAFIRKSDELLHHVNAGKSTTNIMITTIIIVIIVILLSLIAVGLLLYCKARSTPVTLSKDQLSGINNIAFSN
UniProt P20895: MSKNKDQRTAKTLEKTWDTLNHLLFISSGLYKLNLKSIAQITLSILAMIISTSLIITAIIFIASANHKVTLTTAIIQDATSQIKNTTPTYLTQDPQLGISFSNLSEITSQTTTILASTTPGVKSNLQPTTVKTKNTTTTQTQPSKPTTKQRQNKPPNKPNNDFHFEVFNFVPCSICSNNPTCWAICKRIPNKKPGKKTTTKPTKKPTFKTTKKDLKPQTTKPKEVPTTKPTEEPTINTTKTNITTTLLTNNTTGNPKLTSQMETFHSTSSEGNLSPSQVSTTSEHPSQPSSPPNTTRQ

Tests used:
[1] = target: BST2 (Bone Marrow Stromal Cell Antigen 2) (human (endogenous in HEp-2)) (UniProt Q10589); assay: co-IP; HEp-2 cells transfected with Flag-NS1 or Flag-NS2 alone; endogenous BST2 precipitated with mouse anti-BST2 (M15) or control IgG on Dynabeads protein G, overnight at 4°C; lysis buffer 50 mM Tris HCl pH 7.4, 150 mM NaCl, 0.1% SDS, 0.5% sodium deoxycholate, 1% NP40; blot with anti-Flag-HRP
[2] = target: BST2 (Bone Marrow Stromal Cell Antigen 2) (human (endogenous in HEp-2)) (UniProt Q10589); assay: co-IP; HEp-2 cells infected with RSV, MOI 1, 24 h; endogenous BST2 precipitated from the lysate with anti-BST2 antibody (control: IgG) on Dynabeads protein G, overnight at 4°C; lysis buffer 50 mM Tris HCl pH 7.4, 150 mM NaCl, 0.1% SDS, 0.5% sodium deoxycholate, 1% NP40; 4 washes; PNGase F before the gel; Western blot with anti-RSV, anti-G and anti-F antibodies
[3] = target: BST2 (Bone Marrow Stromal Cell Antigen 2) (human (endogenous in HEp-2)) (UniProt Q10589); assay: co-IP; HEp-2 cells transfected with Flag-NS1 or Flag-NS2 alone; endogenous BST2 precipitated with mouse anti-BST2 (M15) or control IgG on Dynabeads protein G, overnight at 4°C; lysis buffer 50 mM Tris HCl pH 7.4, 150 mM NaCl, 0.1% SDS, 0.5% sodium deoxycholate, 1% NP40; blot with anti-Flag-HRP; remark: listed apart in the source
[4] = target: BST2 (Bone Marrow Stromal Cell Antigen 2) (human (endogenous in HEp-2)) (UniProt Q10589); assay: co-IP; HEp-2 cells transfected with Flag-NS1 and HA-NS2 together; endogenous BST2 precipitated with mouse anti-BST2 (M15) or control IgG on Dynabeads protein G, overnight at 4°C; same lysis buffer; blot with anti-Flag-HRP and anti-HA-HRP

## Flag-tagged NS2 (Flag-NS2) (from UniProt P04543 1-124)
[1]
  binding: binds weakly

## RSV F envelope protein (from UniProt P12568 26-574)
[2]
  binding: binds

## RSV G envelope protein (from UniProt P20895 1-298)
[2]
  binding: binds

B1: Flag-tagged NS1 (Flag-NS1) (protein, UniProt P0DOE9 1-139)
chain: MGSNSLSMIKVRLQNLFDNDEVALLKITCYTDKLIHLTNALAKAVIHTIKLNGIVFVHVITSSDICPNNNIVVKSNFTTMPVLQNGGYIWEMMELTHCSQPNGLLDDNCEIKFSKKLSDSTMTNYMNQLSELLGFDLNP
[3]
  binding: binds
[4]
  binding: binds
